The values that follow come from article PMC7642414, “R-spondins are BMP receptor antagonists in Xenopus early embryonic development” (Nature Communications, 2020).

By UniProt entry, the sequences of proteins in these tests, tags left out. Where a name states a change or a piece, a line headed by the entry shows the natural chain unless it says otherwise. Residues count along the entry.
UniProt P36894, residues 24-532: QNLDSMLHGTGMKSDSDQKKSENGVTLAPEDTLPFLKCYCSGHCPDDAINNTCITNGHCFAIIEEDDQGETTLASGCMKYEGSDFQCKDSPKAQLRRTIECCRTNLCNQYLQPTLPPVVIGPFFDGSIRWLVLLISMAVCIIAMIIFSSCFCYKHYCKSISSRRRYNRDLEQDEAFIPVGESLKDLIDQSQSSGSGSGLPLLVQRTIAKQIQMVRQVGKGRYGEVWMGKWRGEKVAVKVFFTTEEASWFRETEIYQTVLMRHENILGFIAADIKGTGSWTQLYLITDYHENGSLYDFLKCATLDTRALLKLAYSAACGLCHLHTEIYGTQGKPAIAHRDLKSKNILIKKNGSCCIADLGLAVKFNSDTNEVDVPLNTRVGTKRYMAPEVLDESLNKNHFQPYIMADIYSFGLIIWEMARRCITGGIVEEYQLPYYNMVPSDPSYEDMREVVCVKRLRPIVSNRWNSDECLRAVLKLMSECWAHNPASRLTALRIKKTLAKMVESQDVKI
UniProt Q2MKA7: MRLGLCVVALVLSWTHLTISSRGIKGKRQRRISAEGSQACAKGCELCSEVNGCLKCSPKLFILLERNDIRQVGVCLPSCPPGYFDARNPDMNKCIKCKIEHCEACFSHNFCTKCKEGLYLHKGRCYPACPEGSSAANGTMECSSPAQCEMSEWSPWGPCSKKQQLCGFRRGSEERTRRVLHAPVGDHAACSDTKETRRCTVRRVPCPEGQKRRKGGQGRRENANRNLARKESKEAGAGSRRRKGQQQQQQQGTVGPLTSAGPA
UniProt Q6UXX9: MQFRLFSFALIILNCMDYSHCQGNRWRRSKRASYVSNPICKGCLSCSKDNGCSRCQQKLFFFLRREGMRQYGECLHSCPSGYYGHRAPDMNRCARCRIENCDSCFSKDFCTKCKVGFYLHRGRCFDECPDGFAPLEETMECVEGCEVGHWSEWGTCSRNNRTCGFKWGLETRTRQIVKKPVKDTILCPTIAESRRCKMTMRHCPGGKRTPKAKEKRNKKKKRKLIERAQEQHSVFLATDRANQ
UniProt Q9BXY4: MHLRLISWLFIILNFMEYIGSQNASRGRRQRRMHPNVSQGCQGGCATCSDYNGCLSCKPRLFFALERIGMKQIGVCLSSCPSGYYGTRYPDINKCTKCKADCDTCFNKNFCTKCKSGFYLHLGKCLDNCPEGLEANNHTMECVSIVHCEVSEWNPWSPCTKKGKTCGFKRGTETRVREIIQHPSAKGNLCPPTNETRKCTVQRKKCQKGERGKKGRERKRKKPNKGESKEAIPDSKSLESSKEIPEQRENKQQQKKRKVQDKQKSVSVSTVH
UniProt Q8BJ73: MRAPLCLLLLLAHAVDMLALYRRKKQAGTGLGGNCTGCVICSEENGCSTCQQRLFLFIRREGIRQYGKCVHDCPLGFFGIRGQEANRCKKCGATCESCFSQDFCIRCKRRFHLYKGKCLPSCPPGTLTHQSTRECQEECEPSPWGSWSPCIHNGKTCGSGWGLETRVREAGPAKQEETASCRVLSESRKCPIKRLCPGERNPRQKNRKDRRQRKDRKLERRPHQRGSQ

No constants are given. Whether binding was seen depends on the method and setting. A result given as binding can be weak or reduced; the word gives no strength.

The target of the experiment is human BMPR1A-HA on HEK293T cells (human) (UniProt P36894). The experiment can be described thus: cell surface binding assay (AP fusion, chromogenic stain); HEK293T cells transfected with receptor DNA, incubated with 1.5 U ml^-1 AP-fusion conditioned media for 3 h on ice, washed, DSP crosslinking, Levamisole, developed with BM-Purple.
In the case of “human RSPO1^∆C-AP (from UniProt Q2MKA7) (ligand)”, the binding result is recorded as “no binding (tested: 1.5 U ml^-1 conditioned media)”.
In the case of “human RSPO2^∆C-AP (from UniProt Q6UXX9) (ligand)” it was “binds”; in that of “human RSPO3^∆C-AP (from UniProt Q9BXY4) (ligand)”, “binds”.
To “murine RSPO4^∆C-AP (from UniProt Q8BJ73) (ligand)” belongs “no binding (tested: 1.5 U ml^-1 conditioned media)”.
